# Measurements: patent US7247700
# Results are given in words; binding and its absence hold for the method and conditions named. Some binding calls cover weakened binding; strength is not graded here.
# B1: BAK (protein, mouse, UniProt O08734 2-209, looked up)
# chain: ASGQGPGPPKVGCDESPSPSEQQVAQDTEEVFRSYVFYLHQQEQETQGAAAPANPEMDNLPLEPNSILGQVGRQLALIGDDINRRYDTEFQNLLEQLQPTAGNAYELFTKIASSLFKSGISWGRVVALLGFGYRLALYVYQRGLTGFLGQVTCFLADIILHHYIARWIAQRGGWVAALNFRRDPILTVMVIFGVVLLGQFVVHRFFRS
# Target: BAK (mouse) (UniProt O08734)
# Experiment: BMH crosslinking of tBID-treated mitochondria, SDS-PAGE, anti-BAK immunoblot
binder,measurement,value
B1,binding,binds
